Results on nine compounds are retold here after the supplement of paper PMC7238544.

In experiment [1] the test system is hAMSC donor 1. As to the kind of experiment: Hoechst total cell count ratio vs vehicle control; higher = more cells (less toxicity).
Experiment [2] relates to hAMSC donor 2. The description is as above.
Experiment [3] deals with hAMSC donor 2. As to the kind of experiment: transgenic luciferase activity (RLU/mg protein) fold change vs vehicle control (ratio); higher = more transgene expression.
The test system of experiment [4] is hAMSC donor 1. As to the kind of experiment: transfection efficiency (EGFP+ cells / Hoechst count) fold change vs vehicle control (ratio); hAMSC are human adipose-derived mesenchymal stem cells given an EGFP-luciferase plasmid by lipofection; higher = enhanced transfection.
Experiment [5] deals with hAMSC donor 2. Described as above.
The mark [6] stands for this setting: priming compound concentration 0.2 µM.
The mark [7] stands for this setting: priming compound concentration 1.7 µM.
[8] abbreviates: priming compound concentration 13 µM.

Counter-ions that a name gives are not always drawn. ± gives the standard deviation of the averaged measurements. The list shows a part of the results. The data scatter; read single values as rough.

With `O=C1[C@H]2CCCC[C@H]2C(=O)N1CCCCN1CCN(c2nsc3ccccc23)CC1` [Perospirone hydrochloride], the “Hoechst total cell count ratio” value in experiment [1] (setting [6]) was determined as 1.09 ± 0.038; in experiment [1] (setting [7]) it was 1.38 ± 0.43; in experiment [1] (setting [8]), 1.39 ± 0.044; in experiment [2] (setting [6]), 0.856 ± 0.13; in experiment [2] (setting [7]), 1.03 ± 0.045; in experiment [2] (setting [8]), 1.03 ± 0.09. The transgenic luciferase activity in experiment [3] (setting [8]) came to 0.472 ± 0.018. Besides, the transfection efficiency in experiment [4] (setting [6]) amounted to 0.816 ± 0.14; in experiment [4] (setting [7]) it was 0.767 ± 0.25; in experiment [4] (setting [8]) it was 0.902 ± 0.052; in experiment [5] (setting [6]), 1.05 ± 0.25; in experiment [5] (setting [7]) it was 1.11 ± 0.068; in experiment [5] (setting [8]), 1.2 ± 0.2.

As for `CN1C2CCCC1CC(NC(=O)c1nn(C)c3ccccc13)C2` (configuration not stated) [Granisetron hydrochloride], the “Hoechst total cell count ratio” value was 1.48 ± 0.32 in experiment [1] (setting [6]); 1.3 ± 0.37 in experiment [1] (setting [7]); 1.31 ± 0.083 in experiment [1] (setting [8]); 0.929 ± 0.072 in experiment [2] (setting [6]); 1.04 ± 0.091 in experiment [2] (setting [7]); 1.6 ± 0.25 in experiment [2] (setting [8]). In addition, the transgenic luciferase activity in experiment [3] (setting [7]) was determined as 0.534 ± 0.013. Also, the transfection efficiency in experiment [4] (setting [6]) was determined as 1.07 ± 0.3; in experiment [4] (setting [7]) it was 1.04 ± 0.28; in experiment [4] (setting [8]), 1.17 ± 0.089; in experiment [5] (setting [6]), 1.11 ± 0.072; in experiment [5] (setting [7]), 1.26 ± 0.044; in experiment [5] (setting [8]), 0.914 ± 0.12.

Take `CCc1ccc(CCOc2ccc(CC3SC(=O)NC3=O)cc2)nc1` (configuration not stated) [Pioglitazone hydrochloride]: the “Hoechst total cell count ratio” value turned out to be 1.52 ± 0.14 in experiment [1] (setting [6]); 1.37 ± 0.17 in experiment [1] (setting [7]); 2.09 ± 0.21 in experiment [1] (setting [8]); 1.05 ± 0.1 in experiment [2] (setting [6]); 1.19 ± 0.071 in experiment [2] (setting [7]); 1.06 ± 0.14 in experiment [2] (setting [8]). In experiment [3] (setting [8]), the transgenic luciferase activity worked out at 0.998 ± 0.22. The transfection efficiency in experiment [4] (setting [6]) worked out at 1.14 ± 0.037; in experiment [4] (setting [7]) it was 0.925 ± 0.36; in experiment [4] (setting [8]), 0.478 ± 0.053; in experiment [5] (setting [6]), 1.07 ± 0.18; in experiment [5] (setting [7]), 0.875 ± 0.086; in experiment [5] (setting [8]), 0.949 ± 0.076.

`COC(=O)C1=C(C)NC(C)=C(C(=O)OC2CCCN(Cc3ccccc3)C2)C1c1cccc([N+](=O)[O-])c1` (configuration not stated) [Benidipine hydrochloride]: the “Hoechst total cell count ratio” value stood at 1.12 ± 0.16 in experiment [1] (setting [6]); 1.12 ± 0.18 in experiment [1] (setting [7]); 1.06 ± 0.095 in experiment [1] (setting [8]); 1.02 ± 0.23 in experiment [2] (setting [6]); 1.03 ± 0.14 in experiment [2] (setting [7]); 0.891 ± 0.069 in experiment [2] (setting [8]). The transgenic luciferase activity in experiment [3] (setting [8]) is 1.09 ± 0.26. In addition, the transfection efficiency in experiment [4] (setting [6]) came out at 1.09 ± 0.11; in experiment [4] (setting [7]), 1.51 ± 0.21; in experiment [4] (setting [8]), 1.28 ± 0.4; in experiment [5] (setting [6]), 1.09 ± 0.23; in experiment [5] (setting [7]) it was 1.25 ± 0.065; in experiment [5] (setting [8]), 1.13 ± 0.14.

As to `COc1ccc2[nH]c([S@@+]([O-])Cc3ncc(C)c(OC)c3C)nc2c1` [Esomeprazole magnesium], the “Hoechst total cell count ratio” value came out at 1.61 ± 0.38 in experiment [1] (setting [6]); 1.21 ± 0.19 in experiment [1] (setting [7]); 1.32 ± 0.041 in experiment [1] (setting [8]); 1.07 ± 0.1 in experiment [2] (setting [6]); 1.13 ± 0.053 in experiment [2] (setting [7]); 1.36 ± 0.12 in experiment [2] (setting [8]). Besides, the transgenic luciferase activity in experiment [3] (setting [7]) is 0.523 ± 0.023. The transfection efficiency in experiment [4] (setting [6]) was determined as 0.778 ± 0.23; in experiment [4] (setting [7]) it was 1.16 ± 0.083; in experiment [4] (setting [8]) it was 1.29 ± 0.36; in experiment [5] (setting [6]), 1.21 ± 0.12; in experiment [5] (setting [7]), 0.935 ± 0.12; in experiment [5] (setting [8]), 1.06 ± 0.2.

With `CC(=O)[C@H]1CC[C@H]2[C@@H]3CCC4=CC(=O)CC[C@]4(C)[C@H]3CC[C@]12C` [Progesterone], the “Hoechst total cell count ratio” value in experiment [1] (setting [6]) worked out at 1.22 ± 0.044; in experiment [1] (setting [7]), 1.34 ± 0.33; in experiment [1] (setting [8]), 1.23 ± 0.05; in experiment [2] (setting [6]) it was 1.01 ± 0.044; in experiment [2] (setting [7]), 1.23 ± 0.025; in experiment [2] (setting [8]), 0.99 ± 0.11. Further, in experiment [3] (setting [8]), the transgenic luciferase activity is 1.06 ± 0.058. Further, the transfection efficiency in experiment [4] (setting [6]) was 0.762 ± 0.069; in experiment [4] (setting [7]) it was 0.766 ± 0.22; in experiment [4] (setting [8]), 0.849 ± 0.17; in experiment [5] (setting [6]), 1.01 ± 0.1; in experiment [5] (setting [7]), 0.932 ± 0.038; in experiment [5] (setting [8]) it was 1.24 ± 0.13.

`CN(C)CCCSc1ccccc1NC(=O)/C=C/c1ccccc1` [Cinanserin]: the “Hoechst total cell count ratio” value was 0.954 ± 0.26 in experiment [1] (setting [6]); 1.19 ± 0.12 in experiment [1] (setting [7]); 1.15 ± 0.038 in experiment [1] (setting [8]); 1.06 ± 0.3 in experiment [2] (setting [6]); 0.983 ± 0.01 in experiment [2] (setting [7]); 1.08 ± 0.065 in experiment [2] (setting [8]). In experiment [3] (setting [8]), the transgenic luciferase activity came to 0.693 ± 0.16. For the same compound, the transfection efficiency in experiment [4] (setting [6]) is 1.19 ± 0.52; in experiment [4] (setting [7]), 0.759 ± 0.024; in experiment [4] (setting [8]) it was 0.825 ± 0.18; in experiment [5] (setting [6]), 1.07 ± 0.067; in experiment [5] (setting [7]), 1.22 ± 0.035; in experiment [5] (setting [8]), 0.928 ± 0.13.

On to `Cc1ccc(O)c([C@H](CCN(C(C)C)C(C)C)c2ccccc2)c1` [Tolterodine tartrate], for which the “Hoechst total cell count ratio” value in experiment [1] (setting [6]) came to 1.01 ± 0.1; in experiment [1] (setting [7]), 1.49 ± 0.22; in experiment [1] (setting [8]) it was 1.34 ± 0.034; in experiment [2] (setting [6]), 0.643 ± 0.21; in experiment [2] (setting [7]), 1.15 ± 0.043; in experiment [2] (setting [8]), 1.08 ± 0.051. In experiment [3] (setting [8]), the transgenic luciferase activity is 0.647 ± 0.11. For the same compound, the transfection efficiency turned out to be 1.14 ± 0.19 in experiment [4] (setting [6]); 0.672 ± 0.27 in experiment [4] (setting [7]); 0.944 ± 0.018 in experiment [4] (setting [8]); 1.38 ± 0.18 in experiment [5] (setting [6]); 0.805 ± 0.045 in experiment [5] (setting [7]); 0.929 ± 0.17 in experiment [5] (setting [8]).

As to `CC(C(=O)O)c1ccc(CC2CCCC2=O)cc1` (configuration not stated) [Loxoprofen sodium], the “Hoechst total cell count ratio” value in experiment [1] (setting [6]) was determined as 1.17 ± 0.2; in experiment [1] (setting [7]), 1.06 ± 0.19; in experiment [1] (setting [8]) it was 1.11 ± 0.15; in experiment [2] (setting [6]), 1.22 ± 0.036; in experiment [2] (setting [7]), 1.31 ± 0.088; in experiment [2] (setting [8]), 1.01 ± 0.036. Also, the transgenic luciferase activity in experiment [3] (setting [8]) worked out at 0.849 ± 0.19. Moreover, the transfection efficiency in experiment [4] (setting [6]) came to 1.39 ± 0.12; in experiment [4] (setting [7]) it was 0.989 ± 0.063; in experiment [4] (setting [8]) it was 0.803 ± 0.22; in experiment [5] (setting [6]), 1.08 ± 0.12; in experiment [5] (setting [7]) it was 1.14 ± 0.016; in experiment [5] (setting [8]) it was 1.15 ± 0.29.
